# Results of single-concentration screens

Amino acid sequences for entries named in this document (tags omitted). Residues count along the entry.
UniProt Q4DA54, 1-478: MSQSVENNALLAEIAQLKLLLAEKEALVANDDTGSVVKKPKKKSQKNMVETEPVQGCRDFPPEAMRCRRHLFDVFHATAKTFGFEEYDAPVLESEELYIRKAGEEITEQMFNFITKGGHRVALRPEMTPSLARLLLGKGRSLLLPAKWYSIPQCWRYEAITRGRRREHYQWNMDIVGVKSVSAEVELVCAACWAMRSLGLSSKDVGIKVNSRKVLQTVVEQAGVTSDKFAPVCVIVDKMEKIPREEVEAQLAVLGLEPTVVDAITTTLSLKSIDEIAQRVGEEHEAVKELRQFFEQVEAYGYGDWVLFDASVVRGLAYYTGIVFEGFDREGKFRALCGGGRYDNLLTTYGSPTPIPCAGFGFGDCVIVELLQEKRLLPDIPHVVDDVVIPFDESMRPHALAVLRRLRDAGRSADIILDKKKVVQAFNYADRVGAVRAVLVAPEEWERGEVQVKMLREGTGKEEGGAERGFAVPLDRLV
UniProt A4I591, 1-473: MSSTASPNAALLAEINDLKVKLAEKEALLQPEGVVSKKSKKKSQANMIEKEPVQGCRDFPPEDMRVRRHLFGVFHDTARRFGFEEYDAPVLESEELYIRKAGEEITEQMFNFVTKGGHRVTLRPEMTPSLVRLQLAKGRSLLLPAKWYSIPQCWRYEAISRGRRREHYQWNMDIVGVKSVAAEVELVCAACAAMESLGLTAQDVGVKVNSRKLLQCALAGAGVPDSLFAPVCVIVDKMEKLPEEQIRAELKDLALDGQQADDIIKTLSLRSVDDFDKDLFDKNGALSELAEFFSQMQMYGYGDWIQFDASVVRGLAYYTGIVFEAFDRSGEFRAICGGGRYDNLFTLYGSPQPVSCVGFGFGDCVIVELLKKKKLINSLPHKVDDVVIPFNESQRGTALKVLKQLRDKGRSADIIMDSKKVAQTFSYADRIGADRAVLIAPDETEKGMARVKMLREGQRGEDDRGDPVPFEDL

Measurements from “University of Dundee, Small-Polar-MMV Screening Library” (2021), ChEMBL document CHEMBL3988442.

T. brucei: 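Whole-parasite assay of Trypanosoma brucei over 72 hours; the read-out is not stated. Compounds at 30 µM. Higher reads as stronger inhibition (inferred: compounds with an IC50 in retests scored well above the rest). Values scatter widely below zero; nearly all retest evidence comes from the higher of the two concentrations used. Of about 64,000 compounds tested this way, about 940 (1.5%) reached 50% or more in at least one test.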
TcHisRS: 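Histidine-tRNA ligase, Trypanosoma cruzi CL Brener (UniProt Q4DA54). Enzyme assay of histidyl-tRNA synthetase; the read-out is not stated. Compounds at 30 µM. Higher reads as stronger inhibition (inferred: compounds with an IC50 in retests scored well above the rest). Size under these conditions: about 69,000 compounds, about 31 of them at 50% or above in at least one test.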
LiHisRS: 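Enzyme assay of histidyl-tRNA synthetase; the read-out is not stated. Target: Histidine-tRNA ligase, Leishmania infantum (UniProt A4I591). Compounds at 30 µM. The record gives no direction; compounds that gave an IC50 in retests scored well above the rest, so higher reads as stronger inhibition. The assay is labelled LdHisRS but filed under L. infantum. Of about 69,000 compounds tested this way, about 410 (0.6%) reached 50% or more in at least one test.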

Values are the deposited “Percent Effect”, in %. The controls that fix the scale are not given in the record; negative values are as filed. This is an unselected part of the compounds tested.

With [H][C@]12CC[C@]([H])(CN(Cc3cscn3)C1)N(C(=O)c1cc(C(C)C)on1)C2 the screen gave T. brucei: -1.215%. For CCS(=O)(=O)CCN1CCN(C2CCC(C(C)C)CC2)CC1 (configuration not stated) the result was T. brucei: -4.825%; TcHisRS: -0.5525%; LiHisRS: 13.54%. COc1ccc(CNCC2CC2)cc1F read T. brucei: 1.996%; TcHisRS: -2.674%; LiHisRS: 1.923%. With CCc1ccc(C(=O)N2CCCC2c2nnc3n2CCCCC3)o1 (configuration not stated) the screen gave TcHisRS: 0%; LiHisRS: 0%. O=C(O)C(F)(F)F.[H][C@@]12COC[C@@H](CC(=O)N3CCCC3)[C@]1([H])CN(Cc1ccc(OC)cc1)C2 gave T. brucei: -16.05%. Result for COc1ccccc1CCN1CCCC(CN(C)Cc2ccc(C)o2)C1 (configuration not stated) was T. brucei: 16.89%; TcHisRS: 3.659%; LiHisRS: 8.434%. For Cn1cc(CN2CCc3ccc(=O)n(Cc4ccncc4)c3CC2)cn1.O=C(O)C(F)(F)F.O=C(O)C(F)(F)F the result was T. brucei: -4.106%. With C[C@H](NS(C)(=O)=O)C(=O)NCc1cc(-c2ccco2)n[nH]1 the screen gave T. brucei: 5.834%; TcHisRS: 6.78%; LiHisRS: 51.43%.

For NC(=O)CN1CCCN(C(=O)Cc2ccc(Br)cc2)CC1 the result was T. brucei: 17.78%; TcHisRS: 7.91%; LiHisRS: 12.07%. For CC(NC(=O)N1CCN(CCc2ccccc2)CC1)c1nncn1C (configuration not stated) the result was T. brucei: -14.12%; TcHisRS: -2.642%; LiHisRS: 20.27%. Cc1nc(CN2CCCC(c3nc(C)n4c(C)c(C)sc34)C2)co1 (configuration not stated) read T. brucei: -35.39%; TcHisRS: 5.224%; LiHisRS: 7.368%. For CC(C)c1nc(C2CCCN2CCCc2nc3ccccc3o2)no1 (configuration not stated) the result was T. brucei: -5.464%; TcHisRS: 0%; LiHisRS: 9.524%. Result for O=C(Nc1ccccc1)C1CN(Cc2ccsc2)CC12CCOCC2.O=C(O)C(F)(F)F (configuration not stated) was T. brucei: -11.66%. Result for CN(C(=O)CSc1ccccn1)C1CCCN(CCc2ccccc2)C1 (configuration not stated) was T. brucei: 106.3%; TcHisRS: -2.326%; LiHisRS: -3.279%. For CCN(Cc1ccncc1)CC1(O)CCN(C(=O)c2cccc(C)c2)C1 (configuration not stated) the result was T. brucei: -9.366%; TcHisRS: 6.716%; LiHisRS: 26.32%. With CN(C)C(=O)CCC(=O)N1CCC2(CC1)COC2 the screen gave T. brucei: -20.61%; TcHisRS: 5.825%; LiHisRS: 13.59%.

Result for CNc1cc(-c2cc(OC)c(OC)c(OC)c2)ncn1 was T. brucei: -14.12%; TcHisRS: -1.13%; LiHisRS: 8.571%. With CC(C)NC(=O)N1CC(=O)c2sc(NC3CCCCC3)nc2C1 the screen gave T. brucei: -21.05%; TcHisRS: 0%; LiHisRS: 14.29%. CC(C)(C)C1SCC(=O)Nc2c1c(O)nn2C1CCCCC1 (configuration not stated) gave T. brucei: -21.89%; TcHisRS: -2.439%; LiHisRS: 18.42%. CN(C(=O)CNC(=O)CC(C)(C)C)C1CCN(c2ccccn2)CC1 gave T. brucei: -22.11%; TcHisRS: 0.8403%; LiHisRS: 21.05%. With COc1nn(C)c2c1CCCN(C(=O)c1ccc3ccccc3n1)C2.O=C(O)C(F)(F)F the screen gave T. brucei: -34.22%. Cc1cccc(-c2nnn3c2COC(CNC(=O)N2CCCC2)C3)c1 (configuration not stated) gave T. brucei: -52.36%; TcHisRS: 2.062%; LiHisRS: 12%. Cc1cnn(CCNCc2ccc(S(C)(=O)=O)cc2)c1 read T. brucei: -31.4%; TcHisRS: 4.972%; LiHisRS: -2.083%. With Cc1cc(C(=O)NCCN2CCN(S(C)(=O)=O)CC2)no1 the screen gave TcHisRS: -20%; LiHisRS: 11.11%.

For O=S1(=O)N=C(SCc2ccc(Cl)cc2)Nc2ccc(F)cc21 the result was T. brucei: 16.86%; TcHisRS: -2.174%; LiHisRS: -37.86%. For c1ccc(OCCN2CCN(c3ncnc4[nH]ccc34)CC2)cc1 the result was T. brucei: 21.45%; TcHisRS: -2.424%; LiHisRS: 20.78%. COCCCn1ccc(NCc2ccc(NC(C)=O)cc2)n1 gave T. brucei: 5.785%; TcHisRS: 3.017%; LiHisRS: 11.39%. Result for CC(c1ccon1)N(C)C(=O)C1CCN(C(=O)C2CC2)CC1 (configuration not stated) was T. brucei: -3.916%; TcHisRS: 6.173%; LiHisRS: 21.51%. CC1(C)CC(CN2CCC3(CCC(=O)N(CCO)C3)CC2)CCO1 (configuration not stated) read T. brucei: -5.296%; TcHisRS: -2.469%; LiHisRS: 1.961%. O=C1N(Cc2cccnc2)CCC12CCCN(c1ncccn1)C2 (configuration not stated) gave TcHisRS: -4.444%; LiHisRS: 0%. Result for CC(=O)c1cc(C(=O)N2CCC(CC(C)C)C2)c(=O)[nH]c1C (configuration not stated) was T. brucei: -1.283%; TcHisRS: 7.143%; LiHisRS: 22.22%. Result for CN1CC2(CCN(Cc3ncc[nH]3)CC2)CC1=O was T. brucei: -1.192%; TcHisRS: 3.333%; LiHisRS: 14.53%.

Result for c1cnc(N2Cc3nccn3CC(COc3cccnc3)C2)nc1 (configuration not stated) was TcHisRS: 0.9524%; LiHisRS: 16.67%. With O=C(c1occc1CN1C(=O)Cc2ccccc21)N1CC(O)C1 the screen gave T. brucei: 6.692%; TcHisRS: 5.603%; LiHisRS: 16.46%. With Cn1cc(S(=O)(=O)NC(=O)C2(c3cccc(Cl)c3)CC2)cn1 the screen gave T. brucei: -28.07%; TcHisRS: 3.093%; LiHisRS: 20%. O=C1CCC2(CCN(S(=O)(=O)c3ccccc3)CC2)N1CC1CC1 gave T. brucei: -15.32%; TcHisRS: -0.9709%; LiHisRS: 1.942%.

Once more, the final 3:

- O=C(c1occc1CN1C(=O)Cc2ccccc21)N1CC(O)C1 | T. brucei: 6.692%; TcHisRS: 5.603%; LiHisRS: 16.46%
- Cn1cc(S(=O)(=O)NC(=O)C2(c3cccc(Cl)c3)CC2)cn1 | T. brucei: -28.07%; TcHisRS: 3.093%; LiHisRS: 20%
- O=C1CCC2(CCN(S(=O)(=O)c3ccccc3)CC2)N1CC1CC1 | T. brucei: -15.32%; TcHisRS: -0.9709%; LiHisRS: 1.942%